# Results reported in the supplement of paper PMC11438910.
# The list shows a part of the results. Most of these values are background signal.
# B1: 4-173.2 (protein)
# chain 1: QLQLQESGPGLVKPSETLSLTCAVSGGSINSNYWSWIRQPPGKGLDWIGRISGSGGSTDYNPSLKSRVTISTDTSKTQFSLKLRSVTAADTAVYYCGRGSYQIDYWGQGILVTVSS
# chain 2: QAALTQPPSMSGSPGQSVTISCTGTSSDIGGYNRVSWYQQYPGKAPKLMIYEVSKRPSGVSDRFSGSKSGNTASLTISGLQAADEADYYCSSYAGSKALFGGGTRLTVL
# What was measured:
# Experiment in all cases: fluorescence intensity of antibody binding to polysaccharide-coupled beads; higher = stronger binding
# [1] = molecular target: pneumococcal polysaccharide Pn7A; conditions: antibody concentration 12500 ng/mL
# [2] = molecular target: pneumococcal polysaccharide Pn7B
# [3] = molecular target: pneumococcal polysaccharide Pn7C
# [4] = molecular target: pneumococcal polysaccharide Pn7F
# [5] = molecular target: pneumococcal polysaccharide Pn8
# [6] = molecular target: pneumococcal polysaccharide Pn9A
# [7] = molecular target: pneumococcal polysaccharide Pn9L
# [8] = molecular target: pneumococcal polysaccharide Pn9N
# [9] = molecular target: pneumococcal polysaccharide Pn9V
# [10] = antibody concentration 0.1 ng/mL
# [11] = antibody concentration 0.534724 ng/mL
# [12] = antibody concentration 2.8593 ng/mL
# [13] = antibody concentration 15.2894 ng/mL
# [14] = antibody concentration 81.7561 ng/mL
# [15] = antibody concentration 437.17 ng/mL
# [16] = antibody concentration 2337.65 ng/mL
# [17] = antibody concentration 12500 ng/mL
binder,measurement,setting,value
B1,fluorescence intensity,[1],440 MFI
same,fluorescence intensity,[2]; [10],17.5 MFI
same,fluorescence intensity,[2]; [11],15.5 MFI
same,fluorescence intensity,[2]; [12],17.8 MFI
same,fluorescence intensity,[2]; [13],14 MFI
same,fluorescence intensity,[2]; [14],17 MFI
same,fluorescence intensity,[2]; [15],16 MFI
same,fluorescence intensity,[2]; [16],23.8 MFI
same,fluorescence intensity,[2]; [17],70 MFI
same,fluorescence intensity,[3]; [10],16 MFI
same,fluorescence intensity,[3]; [11],15.5 MFI
same,fluorescence intensity,[3]; [12],14.5 MFI
same,fluorescence intensity,[3]; [13],16 MFI
same,fluorescence intensity,[3]; [14],16.5 MFI
same,fluorescence intensity,[3]; [15],17 MFI
same,fluorescence intensity,[3]; [16],20.5 MFI
same,fluorescence intensity,[3]; [17],57.5 MFI
same,fluorescence intensity,[4]; [10],14.5 MFI
same,fluorescence intensity,[4]; [11],16.5 MFI
same,fluorescence intensity,[4]; [12],15 MFI
same,fluorescence intensity,[4]; [13],17.8 MFI
same,fluorescence intensity,[4]; [14],17 MFI
same,fluorescence intensity,[4]; [15],19.5 MFI
same,fluorescence intensity,[4]; [16],42 MFI
same,fluorescence intensity,[4]; [17],293 MFI
same,fluorescence intensity,[5]; [10],22 MFI
same,fluorescence intensity,[5]; [11],21.5 MFI
same,fluorescence intensity,[5]; [12],22.5 MFI
same,fluorescence intensity,[5]; [13],21.8 MFI
same,fluorescence intensity,[5]; [14],22.8 MFI
same,fluorescence intensity,[5]; [15],27 MFI
same,fluorescence intensity,[5]; [16],33.2 MFI
same,fluorescence intensity,[5]; [17],46.5 MFI
same,fluorescence intensity,[6]; [10],19 MFI
same,fluorescence intensity,[6]; [11],20 MFI
same,fluorescence intensity,[6]; [12],18.5 MFI
same,fluorescence intensity,[6]; [13],20.5 MFI
same,fluorescence intensity,[6]; [14],19.2 MFI
same,fluorescence intensity,[6]; [15],20 MFI
same,fluorescence intensity,[6]; [16],25 MFI
same,fluorescence intensity,[6]; [17],69.8 MFI
same,fluorescence intensity,[7]; [10],18 MFI
same,fluorescence intensity,[7]; [11],17.5 MFI
same,fluorescence intensity,[7]; [12],18 MFI
same,fluorescence intensity,[7]; [13],18.2 MFI
same,fluorescence intensity,[7]; [14],18 MFI
same,fluorescence intensity,[7]; [15],17.8 MFI
same,fluorescence intensity,[7]; [16],21 MFI
same,fluorescence intensity,[7]; [17],47.2 MFI
same,fluorescence intensity,[8]; [10],15.5 MFI
same,fluorescence intensity,[8]; [11],16 MFI
same,fluorescence intensity,[8]; [12],14.5 MFI
same,fluorescence intensity,[8]; [13],15.5 MFI
same,fluorescence intensity,[8]; [14],17 MFI
same,fluorescence intensity,[8]; [15],16.5 MFI
same,fluorescence intensity,[8]; [16],22.5 MFI
same,fluorescence intensity,[8]; [17],63.5 MFI
same,fluorescence intensity,[9]; [10],15 MFI
same,fluorescence intensity,[9]; [11],15.5 MFI
same,fluorescence intensity,[9]; [12],15 MFI
same,fluorescence intensity,[9]; [13],15.5 MFI
same,fluorescence intensity,[9]; [14],15.5 MFI
same,fluorescence intensity,[9]; [15],16.5 MFI
same,fluorescence intensity,[9]; [16],18.5 MFI
same,fluorescence intensity,[9]; [17],23.5 MFI

# Random excerpt: four entries already listed, in no set order.
binder,measurement,setting,value
B1,fluorescence intensity,[5]; [15],27 MFI
same,fluorescence intensity,[8]; [13],15.5 MFI
same,fluorescence intensity,[8]; [16],22.5 MFI
same,fluorescence intensity,[8]; [11],16 MFI
